Source: the supplement of paper PMC4604168 (melanoma cell lines)
The list shows a part of the results. Repeats are few or missing, and single values can be far off.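 Cells were imaged in 1,536-well plates, and nuclei stained with an antibody against cleaved PARP were counted against all DNA-stained nuclei to give the apoptosis fraction. Screening doses were chosen to leave most cells alive, and resting and induced cleaved-PARP levels differ strongly between cell lines.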

What follows are compounds tested on RPMI7951 (assay: cleaved PARP positive nuclei fraction relative to DMSO control; melanoma cells; higher = more apoptosis). Conditions: library dose: low library concentration; 72 h.
C=C(c1ccc(C(=O)O)cc1)c1cc2c(cc1C)C(C)(C)CCC2(C)C [Bexarotene] + Cc1ccc(NC(=O)c2cccc(N(C)C)c2)cc1NC(=O)c1ccc(O)cc1 [ZM336372] (first compound 2 µM, partner dose 2 µM) was tested, and the “cleaved PARP positive nuclei fraction” value was 84.1%.
For Nc1nc(F)nc2c1ncn2[C@@H]1O[C@H](CO)[C@@H](O)[C@@H]1O [fludarabine] + C=CCn1c(=O)c2cnc(Nc3ccc(N4CCN(C)CC4)cc3)nc2n1-c1cccc(C(C)(C)O)n1 [MK1775] (first compound 0.2 µM, partner dose 0.02 µM), the “cleaved PARP positive nuclei fraction” value was 97.1%.
In the case of Cc1cc(Nc2cc(N3CCN(C)CC3)nc(/C=C/c3ccccc3)n2)n[nH]1 + Cn1cc(/C=C2\C(=O)Nc3cccnc32)c2ccccc21 [GW441756] (first compound 0.04 µM, partner dose 0.4 µM), the “cleaved PARP positive nuclei fraction” value is reported as 36.6%.
For CC(C)C[C@H](NC(=O)[C@H](Cc1ccccc1)NC(=O)c1cnccn1)B(O)O [Bortezomib] + c1cc(-c2cnn3cc(-c4ccc(OCCN5CCCCC5)cc4)cnc23)ccn1 [Dorsomorphin] (first compound 0.001 µM, partner dose 0.4 µM), the “cleaved PARP positive nuclei fraction” value was 35.9%.
In the case of Nc1ncn([C@H]2C[C@H](O)[C@@H](CO)O2)c(=O)n1 [decitabine] + Cc1cc([N+](=O)[O-])ccc1NS(=O)(=O)c1cc(Cl)ccc1Cl [FH535] (first compound 0.1 µM, partner dose 1 µM), the “cleaved PARP positive nuclei fraction” value is reported as 36.1%.
With Nc1ncn([C@H]2C[C@H](O)[C@@H](CO)O2)c(=O)n1 [decitabine] + O=C(Nc1cccc(Cl)c1)Nc1ncc(CCNc2ncnc3ccsc23)s1 [SNS314] (first compound 0.1 µM, partner dose 0.0008 µM) the “cleaved PARP positive nuclei fraction” value was 130%.
For CS(=O)(=O)CCNCc1ccc(-c2ccc3ncnc(Nc4ccc(OCc5cccc(F)c5)c(Cl)c4)c3c2)o1 [lapatinib] + COc1ccc2c(c1)CCC1C2CCC2(C)C(NCCCCCCN3C(=O)C=CC3=O)CCC12 [U73122] (first compound 0.8 µM, partner dose 0.4 µM), the “cleaved PARP positive nuclei fraction” value was 76.1%.
For Cc1cc(Nc2cc(N3CCN(C)CC3)nc(/C=C/c3ccccc3)n2)n[nH]1 + CCCCCCCCCCCC1=C(O)C(=O)C=C(O)C1=O [Embelin] (first compound 0.04 µM, partner dose 1.2 µM), the “cleaved PARP positive nuclei fraction” value was 28.6%.
For C[C@@H](Oc1cc(-c2cnn(C3CCNCC3)c2)cnc1N)c1c(Cl)ccc(F)c1Cl [Crizotinib] + Cc1cc([N+](=O)[O-])ccc1NS(=O)(=O)c1cc(Cl)ccc1Cl [FH535] (first compound 0.2 µM, partner dose 1 µM), the “cleaved PARP positive nuclei fraction” value was 145%.
For Nc1ccn([C@@H]2O[C@H](CO)[C@@H](O)C2(F)F)c(=O)n1 [gemcitabine] + O=C(Nc1cccc(Cl)c1)Nc1ncc(CCNc2ncnc3ccsc23)s1 [SNS314] (first compound 0.0004 µM, partner dose 0.0008 µM), the “cleaved PARP positive nuclei fraction” value was 33.1%.
In the case of O=C(O)[C@@H]1[O][Sb](=[O])([O][Sb]2(=[O])[O][C@H]([C@H](O)CO)[C@H](O)[C@H](C(=O)O)[O]2)[O][C@H]([C@H](O)CO)[C@@H]1O (some centres undefined) [stibogluconate] + CC(C)CCN1c2nc(Nc3cc(F)c(O)c(F)c3)ncc2N(C)C(=O)C1C [BID1870] (first compound 2 µM, partner dose 0.2 µM), the “cleaved PARP positive nuclei fraction” value is reported as 133%.
C=C(c1ccc(C(=O)O)cc1)c1cc2c(cc1C)C(C)(C)CCC2(C)C [Bexarotene] + COc1ccc2c(c1)CCC1C2CCC2(C)C(NCCCCCCN3C(=O)C=CC3=O)CCC12 [U73122] (first compound 2 µM, partner dose 0.4 µM) was tested, and the “cleaved PARP positive nuclei fraction” value was 695%.
For C=C(c1ccc(C(=O)O)cc1)c1cc2c(cc1C)C(C)(C)CCC2(C)C [Bexarotene] + Oc1nc(-c2ccc(C(F)(F)F)cc2)nc2c1CSCC2 [XAV939] (first compound 2 µM, partner dose 2 µM), the “cleaved PARP positive nuclei fraction” value was 211%.
For CS(=O)(=O)CCNCc1ccc(-c2ccc3ncnc(Nc4ccc(OCc5cccc(F)c5)c(Cl)c4)c3c2)o1 [lapatinib] + NC(=O)Nc1cc(-c2cccc(F)c2)sc1C(=O)N[C@H]1CCCNC1 [AZD7762] (first compound 0.8 µM, partner dose 0.02 µM), the “cleaved PARP positive nuclei fraction” value was 67.6%.
O=C(O)[C@@H]1[O][Sb](=[O])([O][Sb]2(=[O])[O][C@H]([C@H](O)CO)[C@H](O)[C@H](C(=O)O)[O]2)[O][C@H]([C@H](O)CO)[C@@H]1O (some centres undefined) [stibogluconate] + CN(NC(=O)CC(=O)NN(C)C(=S)c1ccccc1)C(=S)c1ccccc1 [STA4783] (first compound 2 µM, partner dose 0.006 µM) was tested, and the “cleaved PARP positive nuclei fraction” value was 71.6%.
In the case of CCCS(=O)(=O)Nc1ccc(F)c(C(=O)c2c[nH]c3ncc(Cl)cc23)c1F + COc1ccc(COc2ccc(Cc3cnc(N)nc3N)cc2OC)cc1 [GW2580] (first compound 0.08 µM, partner dose 1 µM), the “cleaved PARP positive nuclei fraction” value is reported as 86%.
For Nc1ncn([C@H]2C[C@H](O)[C@@H](CO)O2)c(=O)n1 [decitabine] + CCc1ccc(CCOc2ccc(CC3SC(=O)NC3=O)cc2)nc1 [pioglitazone] (first compound 0.1 µM, partner dose 2 µM), the “cleaved PARP positive nuclei fraction” value was 82%.
For CN1CCN(c2ccc3nc(-c4c(N)c5c(F)cccc5[nH]c4=O)[nH]c3c2)CC1 [Dovitinib] + CN(NC(=O)CC(=O)NN(C)C(=S)c1ccccc1)C(=S)c1ccccc1 [STA4783] (first compound 0.1 µM, partner dose 0.006 µM), the “cleaved PARP positive nuclei fraction” value was 72.1%.
With Nc1ccn([C@@H]2O[C@H](CO)[C@@H](O)C2(F)F)c(=O)n1 [gemcitabine] + O=c1cc(-c2cccc3c2Sc2ccccc2S3)oc(N2CCOCC2)c1 [KU55933] (first compound 0.0004 µM, partner dose 1 µM) the “cleaved PARP positive nuclei fraction” value was 35.5%.
With CCCS(=O)(=O)Nc1ccc(F)c(C(=O)c2c[nH]c3ncc(Cl)cc23)c1F + COc1cc(Nc2ncc(F)c(Nc3ccc4c(n3)NC(=O)C(C)(C)O4)n2)cc(OC)c1OC [Tamatinib] (first compound 0.08 µM, partner dose 0.4 µM) the “cleaved PARP positive nuclei fraction” value was 187%.
For Cn1c(=O)n(-c2ccc(C(C)(C)C#N)cc2)c2c3cc(-c4cnc5ccccc5c4)ccc3ncc21 + Oc1cc(-c2nc(-c3ccccc3)[nH]c2-c2ccncc2)ccc1Cl [L779450] (first compound 0.004 µM, partner dose 0.2 µM), the “cleaved PARP positive nuclei fraction” value was 150%.
CN1CCN(c2ccc3nc(-c4c(N)c5c(F)cccc5[nH]c4=O)[nH]c3c2)CC1 [Dovitinib] + COc1ccc(COc2ccc(Cc3cnc(N)nc3N)cc2OC)cc1 [GW2580] (first compound 0.1 µM, partner dose 1 µM) was tested, and the “cleaved PARP positive nuclei fraction” value was 61.7%.
With C=C(c1ccc(C(=O)O)cc1)c1cc2c(cc1C)C(C)(C)CCC2(C)C [Bexarotene] + CCc1ccc(CCOc2ccc(CC3SC(=O)NC3=O)cc2)nc1 [pioglitazone] (first compound 2 µM, partner dose 2 µM) the “cleaved PARP positive nuclei fraction” value was 82.9%.
In the case of Cc1cc(Nc2cc(N3CCN(C)CC3)nc(/C=C/c3ccccc3)n2)n[nH]1 + CC(C)CCN1c2nc(Nc3cc(F)c(O)c(F)c3)ncc2N(C)C(=O)C1C [BID1870] (first compound 0.04 µM, partner dose 0.2 µM), the “cleaved PARP positive nuclei fraction” value is reported as 69.2%.
In the case of CN1CCN(c2ccc3nc(-c4c(N)c5c(F)cccc5[nH]c4=O)[nH]c3c2)CC1 [Dovitinib] + CN(C)S(=O)(=O)c1ccc2c(c1)/C(=C/c1cc3c([nH]1)CCCC3)C(=O)N2 [SU6656] (first compound 0.1 µM, partner dose 0.4 µM), the “cleaved PARP positive nuclei fraction” value is reported as 88.5%.
CC(C)C[C@H](NC(=O)[C@H](Cc1ccccc1)NC(=O)c1cnccn1)B(O)O [Bortezomib] + COc1cc2ncnc(Nc3ccc(Oc4ccccc4)cc3)c2cc1OC [SrcI1] (first compound 0.001 µM, partner dose 2 µM) was tested, and the “cleaved PARP positive nuclei fraction” value was 107%.
CC(C)C[C@H](NC(=O)[C@H](Cc1ccccc1)NC(=O)c1cnccn1)B(O)O [Bortezomib] + C[C@@H]1CCN(C(=O)CC#N)C[C@@H]1N(C)c1ncnc2[nH]ccc12 [CP690550] (first compound 0.001 µM, partner dose 1 µM) was tested, and the “cleaved PARP positive nuclei fraction” value was 124%.
For CNC(=O)c1cc(Oc2ccc(NC(=O)Nc3ccc(Cl)c(C(F)(F)F)c3)cc2)ccn1 [sorafenib] + c1cc(-c2cnn3cc(-c4ccc(OCCN5CCCCC5)cc4)cnc23)ccn1 [Dorsomorphin] (first compound 0.4 µM, partner dose 0.4 µM), the “cleaved PARP positive nuclei fraction” value was 89.9%.
O=C(O)c1ccc2c(c1)nc(Nc1cccc(Cl)c1)c1ccncc12 + O=C(Nc1cccc(Cl)c1)Nc1ncc(CCNc2ncnc3ccsc23)s1 [SNS314] (first compound 0.4 µM, partner dose 0.0008 µM) was tested, and the “cleaved PARP positive nuclei fraction” value was 39.1%.
In the case of CCCS(=O)(=O)Nc1ccc(F)c(C(=O)c2c[nH]c3ncc(Cl)cc23)c1F + CCc1ccc(CCOc2ccc(CC3SC(=O)NC3=O)cc2)nc1 [pioglitazone] (first compound 0.08 µM, partner dose 2 µM), the “cleaved PARP positive nuclei fraction” value is reported as 176%.
For O=C(O)c1ccc2c(c1)nc(Nc1cccc(Cl)c1)c1ccncc12 + CC(C)(C)c1cnc(CSc2cnc(NC(=O)C3CCNCC3)s2)o1 [SNS-032] (first compound 0.4 µM, partner dose 0.01 µM), the “cleaved PARP positive nuclei fraction” value was 254%.
With CN1CCN(c2ccc3nc(-c4c(N)c5c(F)cccc5[nH]c4=O)[nH]c3c2)CC1 [Dovitinib] + NC(=O)Nc1cc(-c2cccc(F)c2)sc1C(=O)N[C@H]1CCCNC1 [AZD7762] (first compound 0.1 µM, partner dose 0.02 µM) the “cleaved PARP positive nuclei fraction” value was 182%.
O=C(O)[C@@H]1[O][Sb](=[O])([O][Sb]2(=[O])[O][C@H]([C@H](O)CO)[C@H](O)[C@H](C(=O)O)[O]2)[O][C@H]([C@H](O)CO)[C@@H]1O (some centres undefined) [stibogluconate] + OCCn1cc(-c2cnc3nnn(Cc4ccc5ncccc5c4)c3n2)cn1 [PF04217903] (first compound 2 µM, partner dose 1 µM) was tested, and the “cleaved PARP positive nuclei fraction” value was 67.2%.
In the case of CS(=O)(=O)CCNCc1ccc(-c2ccc3ncnc(Nc4ccc(OCc5cccc(F)c5)c(Cl)c4)c3c2)o1 [lapatinib] + COc1ccc(COc2ccc(Cc3cnc(N)nc3N)cc2OC)cc1 [GW2580] (first compound 0.8 µM, partner dose 1 µM), the “cleaved PARP positive nuclei fraction” value is reported as 159%.
